{"source": "paper PMC11116412", "molecular_target": "Zonula occludens-1 (bovine (endogenous in BAECs))", "experiment": "co-IP; endogenous proteins immunoprecipitated (1 µg antibody, 1 mg protein, overnight, protein A sepharose) from BAEC lysates, lysis buffer with 75 mM NaCl; immunoblot; non-immune IgG as control; cells treated or not with VEGF (40 ng/ml, 10 min), arsenite (500 µM, 30 min), MG132 or siZO-1", "note": "No constants are given. Whether binding was seen depends on the method and setting. Binding seen in cells or lysates may run through a third protein. Binding calls can cover weak binding; strength is not graded here.", "data": [{"binder": "junction plakoglobin (protein, UniProt Q8SPJ1 1-745) MEVMNLIEQPIKVTEWQQTYTYDSGIHSGANTCVPSLSSKGLIEEDEACGRQYTLKKTTTYTQSVPPGQGDLEYQMSTTARAKRVREAMCPGVTGEDSSLLLTTQVEGQTTNLQRLAEPSQLLKSAIVHLINYQDDAELATRALPELTKLLNDEDPVVVTKAAMIVNQLSKKEASRRALMGSPQLVAAVVRTMQNTSDLDTARCTTSILHNLSHHREGLLAIFKSGGIPALVRMLSSPVESVLFYAITTLHNLLLYQEGAKMAVRLADGLQKMVPLLNKNNPKFLAITTDCLQLLAYGNQESKLIILANGGPQALVQIMRNYSYEKLLWTTSRVLKVLSVCPSNKPAIVEAGGMQALGKHLTSNSPRLVQNCLWTLRNLSDVATKQEGLESVLKILVNQLSVDDVNVLTCATGTLSNLTCNNSKNKTLVTQNSGVEALIHAILRAGDKDDITEPAVCALRHLTSRHPEAEMAQNSVRLNYGIPAIVKLLNQPNQWPLVKATIGLIRNLALCPANHAPLQEAAVIPRLVQLLVKAHQDAQRHVAAGTQQPYTDGVRMEEIVEGCTGALHILARDPMNRMEIFRLNTIPLFVQLLYSSVENIQRVAAGVLCELAQDKEAADAIDAEGASAPLMELLHSRNEGTATYAAAVLFRISEDKNPDYRKRVSVELTNSLFKHDPAAWEAAQSMIPMNEPYADDMDATYRPMYSSDVPMDPLEMHMDMDGDYPIDTYSDGLRPPYATADHMLA", "values": [{"measurement": "binding", "result": "binds"}]}]}
